# Construct, isoform or probe ends are uncertain for at least one entry. For part of these data: Negatives hold for the conditions tested. Protein sequences can lack the tags named with them.
# How the values were obtained:
# Assay in all cases: activity assay
# MG153-15 = system: T1, MG153-15; settings: primer extension gel; 3 mM MgCl2, 37 C; protein translated in vitro; protein details: N-terminal Strep; label: 5'-FAM primer; DNA:RNA hybrid
# T1 sequence (limits assumed): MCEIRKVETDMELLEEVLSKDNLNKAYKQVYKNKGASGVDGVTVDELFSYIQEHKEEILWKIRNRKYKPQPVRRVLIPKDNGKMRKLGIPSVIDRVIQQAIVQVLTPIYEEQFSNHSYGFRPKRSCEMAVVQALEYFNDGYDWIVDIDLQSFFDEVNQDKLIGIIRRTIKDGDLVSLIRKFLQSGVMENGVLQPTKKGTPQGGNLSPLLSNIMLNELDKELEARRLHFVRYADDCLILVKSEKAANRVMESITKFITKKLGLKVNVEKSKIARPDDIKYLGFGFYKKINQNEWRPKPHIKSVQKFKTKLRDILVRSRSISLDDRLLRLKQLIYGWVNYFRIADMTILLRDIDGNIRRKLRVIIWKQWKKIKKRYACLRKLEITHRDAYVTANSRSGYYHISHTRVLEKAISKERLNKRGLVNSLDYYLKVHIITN
# MG158-1 = system: T2, MG158-1; settings: tested, not listed as active; protein translated in vitro; protein details: N-terminal Strep; label: 5'-FAM primer; DNA:RNA hybrid
# T2 sequence (limits assumed): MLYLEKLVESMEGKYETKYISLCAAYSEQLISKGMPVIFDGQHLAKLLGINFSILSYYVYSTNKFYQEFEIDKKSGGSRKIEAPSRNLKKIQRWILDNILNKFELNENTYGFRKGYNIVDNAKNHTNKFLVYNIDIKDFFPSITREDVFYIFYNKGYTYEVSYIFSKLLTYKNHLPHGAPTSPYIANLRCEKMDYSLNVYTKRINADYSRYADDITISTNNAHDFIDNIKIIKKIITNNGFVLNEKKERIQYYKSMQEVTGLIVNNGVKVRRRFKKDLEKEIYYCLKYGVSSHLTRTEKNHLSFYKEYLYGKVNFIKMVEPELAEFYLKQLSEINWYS
# MG153-2 = system: T3, MG153-2; settings: primer extension gel; 3 mM MgCl2, 37 C; protein translated in vitro; protein details: N-terminal Strep; label: 5'-FAM primer; DNA:RNA hybrid
# T3 sequence (limits assumed): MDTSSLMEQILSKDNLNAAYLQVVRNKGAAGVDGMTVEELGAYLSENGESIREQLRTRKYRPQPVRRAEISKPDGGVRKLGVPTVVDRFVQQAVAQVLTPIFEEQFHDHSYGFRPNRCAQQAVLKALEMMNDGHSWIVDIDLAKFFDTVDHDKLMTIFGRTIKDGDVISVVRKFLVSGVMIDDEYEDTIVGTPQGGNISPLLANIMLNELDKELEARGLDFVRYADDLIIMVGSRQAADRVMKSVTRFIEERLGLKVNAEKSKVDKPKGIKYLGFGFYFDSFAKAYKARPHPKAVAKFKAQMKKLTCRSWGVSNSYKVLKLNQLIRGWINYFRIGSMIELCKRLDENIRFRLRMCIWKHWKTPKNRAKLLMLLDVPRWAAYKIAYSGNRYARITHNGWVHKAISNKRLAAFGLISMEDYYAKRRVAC
# MG153-29 = system: T4, MG153-29; settings: primer extension gel; 3 mM MgCl2, 37 C; protein translated in vitro; protein details: N-terminal Strep; label: 5'-FAM primer; DNA:RNA hybrid
# T4 sequence (limits assumed): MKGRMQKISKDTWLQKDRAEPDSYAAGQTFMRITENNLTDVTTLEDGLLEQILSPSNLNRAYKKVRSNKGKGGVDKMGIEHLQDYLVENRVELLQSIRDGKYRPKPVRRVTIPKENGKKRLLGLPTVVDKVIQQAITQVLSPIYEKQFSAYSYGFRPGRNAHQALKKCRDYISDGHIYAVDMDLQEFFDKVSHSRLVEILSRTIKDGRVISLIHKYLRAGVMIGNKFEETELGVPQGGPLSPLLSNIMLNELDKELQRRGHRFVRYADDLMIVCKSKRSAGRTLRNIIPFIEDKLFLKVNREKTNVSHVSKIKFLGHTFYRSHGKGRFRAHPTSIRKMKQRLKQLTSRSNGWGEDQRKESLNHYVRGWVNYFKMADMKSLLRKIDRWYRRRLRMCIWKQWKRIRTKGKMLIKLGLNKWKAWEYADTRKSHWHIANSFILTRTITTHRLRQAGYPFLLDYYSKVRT
# MG153-18 = system: T5, MG153-18; settings: primer extension gel; 3 mM MgCl2, 37 C; protein translated in vitro; protein details: N-terminal Strep; label: 5'-FAM primer; DNA:RNA hybrid
# T5 sequence (limits assumed): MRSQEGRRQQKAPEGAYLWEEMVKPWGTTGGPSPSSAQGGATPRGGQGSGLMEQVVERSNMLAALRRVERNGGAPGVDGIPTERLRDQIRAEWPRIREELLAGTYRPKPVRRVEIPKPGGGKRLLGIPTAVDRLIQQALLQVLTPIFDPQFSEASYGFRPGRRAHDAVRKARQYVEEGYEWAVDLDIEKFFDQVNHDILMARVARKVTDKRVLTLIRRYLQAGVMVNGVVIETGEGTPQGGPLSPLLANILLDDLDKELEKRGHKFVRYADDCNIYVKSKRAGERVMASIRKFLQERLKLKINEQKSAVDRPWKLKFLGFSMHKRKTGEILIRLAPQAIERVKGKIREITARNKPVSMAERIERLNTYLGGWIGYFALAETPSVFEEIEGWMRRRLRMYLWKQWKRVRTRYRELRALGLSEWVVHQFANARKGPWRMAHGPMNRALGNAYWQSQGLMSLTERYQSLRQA
# MG173-10 = system: T6, MG173-10; settings: primer extension on general RNA; protein translated in vitro; protein details: N-terminal Strep; label: 5'-FAM primer; DNA:RNA hybrid
# T6 sequence (limits assumed): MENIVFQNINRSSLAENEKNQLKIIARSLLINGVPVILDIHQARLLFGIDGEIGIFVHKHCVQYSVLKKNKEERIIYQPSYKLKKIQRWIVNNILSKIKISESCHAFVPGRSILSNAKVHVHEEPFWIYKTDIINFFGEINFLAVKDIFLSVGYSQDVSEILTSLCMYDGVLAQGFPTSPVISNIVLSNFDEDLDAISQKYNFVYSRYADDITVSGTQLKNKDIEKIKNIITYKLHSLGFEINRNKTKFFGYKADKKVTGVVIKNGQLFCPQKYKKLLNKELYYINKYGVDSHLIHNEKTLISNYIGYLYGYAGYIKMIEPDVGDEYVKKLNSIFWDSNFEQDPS
sequence,measurement,setting,value
GGCAAACCGCCTCTCCCCGCGCGTTGGCCGATTCATTAATGCAGCTGGCACGACAGGTTTCCCGACTGGAAAGGAGACCCGGGCAGTGAGCGCAACGGGTCTCCAATTTAAGCCAGCCCCGACACCCGCCAACACCCGCTGACGCGCCCTGACGGGCTTGTCTGCTCCCGGCATCCGCTTACAGACAAGCTGTGACCGTCTC / GAGACGGTCACAGCTTGTCTG [202-nt RNA template annealed to DNA primer],activity on this sequence,MG153-15,active
same,activity on this sequence,MG158-1,not active
same,activity on this sequence,MG153-2,active
same,activity on this sequence,MG153-29,active
same,activity on this sequence,MG153-18,active
same,activity on this sequence,MG173-10,active
